# Results: PMC11745341
# Results are given in words; binding and its absence hold for the method and conditions named. Some results given as binding are weak or reduced against the parent protein; the word gives no strength.
# T1: RNF212 (mouse) (UniProt F6TQD1)
# T1 sequence: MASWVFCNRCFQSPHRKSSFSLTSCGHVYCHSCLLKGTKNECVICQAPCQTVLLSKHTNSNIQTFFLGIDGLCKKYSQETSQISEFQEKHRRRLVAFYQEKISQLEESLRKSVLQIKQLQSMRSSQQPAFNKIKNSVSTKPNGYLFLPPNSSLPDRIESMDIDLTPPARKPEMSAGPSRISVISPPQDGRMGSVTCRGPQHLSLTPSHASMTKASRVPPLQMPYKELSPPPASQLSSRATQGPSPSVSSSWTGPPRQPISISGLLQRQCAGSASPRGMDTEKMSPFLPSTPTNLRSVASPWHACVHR
# T2: RNF212B (mouse) (UniProt D3Z423)
# T2 sequence: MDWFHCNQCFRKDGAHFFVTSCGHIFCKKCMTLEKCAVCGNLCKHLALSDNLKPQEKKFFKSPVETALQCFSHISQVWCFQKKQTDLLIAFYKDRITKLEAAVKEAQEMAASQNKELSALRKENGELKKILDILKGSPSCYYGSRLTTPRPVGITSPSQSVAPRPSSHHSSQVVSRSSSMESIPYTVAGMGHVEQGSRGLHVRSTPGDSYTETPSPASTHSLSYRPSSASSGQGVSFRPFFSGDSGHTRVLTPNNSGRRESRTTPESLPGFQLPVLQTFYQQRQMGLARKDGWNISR
# T3: RNF212 (mouse), F6TQD1
# T3 chain: T1 sequence
# B1: RNF212B (protein, UniProt D3Z423 1-297)
# chain: T2 sequence
# B2: RNF212 (protein, UniProt F6TQD1 1-307)
# chain: T1 sequence
# B3: HEI10 (protein, UniProt D3Z3K2 1-276)
# chain: MSLCEDMLLCNYRKCRIKLSGYAWVTACSHIFCDQHGSGEFSRSPAICPACNSTLSGKLDIVRTELSPSEEYKAMVLAGLRPEVVLDISSRALAFWTYQVHQERLYQEYNFSKAENHLKQMEKMYMQQIQSKNIELTSMKGEVISMKKVLEEYKKKFSDISEKLMERNRQYQKLQGLYDSLRLRNITIASQEGSLEPGMIPQSGVFGFPPGNNSKFSLDHIPVGNQGGGDEDVQFRPFFVCSPTAPEPINNFFSFASPSHEAEQQVCSRAFKAKRI
# B4: HEI10, D3Z3K2 1-276 (protein)
# chain: B3 chain
# What was measured:
# Experiment in all cases: two-hybrid; yeast two-hybrid (Y2H), standard protocols; details in SI Appendix
# [1] = target: T1, RNF212 (mouse)
# [2] = target: T2, RNF212B (mouse)
# [3] = target: T3, RNF212 (mouse), F6TQD1; details: remark: other sources report otherwise
Binder,binding [1],binding [2],binding [3]
B1,binds,binds,–
B2,binds weakly,–,–
B3,–,binds,–
B4,–,–,no binding
